Hit rate of the full screen: of about 53,000 sequences, about 3,700 (7%) were called active.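 The calls were made as follows: active = gene knockdowns whose robust z-score for IL-1 alpha signal is at least 2 or at most -2, so actives lie on both sides; inactive = the rest.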 The list shows a part of the results.

The test is described as follows: Components of the Cytosolic LPS Sensing Pathway: Gene Identification via Genome-wide siRNA Screen.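 Also: robust z of the log signal after scaling to non-targeting control siRNA wells of the plate.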 As to conditions: RAW264.7 macrophages, IL-1a HTRF, actives lie on both sides, screened at 100 nM (by protocol), cells primed 5 h with Pam3CSK4 first. Summed up: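 Knockdown: 100 nM siRNA, 48h, RAW264.7. Stimulation: Pam3CSK4 5 h, then LipidA via TransIT-TKO 24 h. Output: supernatant IL-1a HTRF, negative-control-normalized, log robust z-score; viability by CellTiter-Glo.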
Regarding GGAGCUAAAUGGCUCUGAUTT against Boc, the z-score was active: 2.98.

For the sequence GGUUCUAGACAAACAUUUUTT against Ubl4b, the z-score was inactive: 0.532.

For GGUCACCUCUCCAUCUAGATT against Vmn2r57, the z-score is inactive: 0.813.

Consider GGAGCAAGUAUUUACAUUGTT against Psmd10, for which the z-score is inactive: 1.55.

On to CCCAAUGUAUUCUACCUACTT against Cast, for which the z-score is inactive: 1.12.

Turning to GGAACAAGAGAGGACAAGUTT against Papss2, the z-score is inactive: 0.555.

With CCACUAACGAUGCAAAAAATT against Mep1a, the z-score is inactive: -0.973.

Turning to AUUGGCAGUUAAGGACCGATT against Noto, the z-score was inactive: -0.522.

Regarding GGAAGGAAUUCUUCAACCUTT against Hsd3b2, the z-score was inactive: -0.322.

Regarding GGAUCUCAAUGUUCACUUGTT against Bpifb2, the z-score is inactive: -0.817.

As to “GGUUUAAUGCGACAUAUUGTT against Vmn2r-ps54”, the z-score was inactive: -1.04.

Regarding CCCUAACUCAAUGUACCAGTT against Slc27a1, the z-score is inactive: 0.293.

Turning to CCUAUCCCAAUGAGGAGAATT against Lman2l, the z-score was inactive: -0.195.

On to GCUAUAUCAGCAGAAUGGCTT against Sun5, for which the z-score is inactive: -1.18.

For the sequence GGGUUUUCCGCAUCUUCAATT against Kcna3, the z-score was inactive: 1.23.

Consider GGUUCGUUUUCAACUGGCGTT against Ppp1r35, for which the z-score was inactive: 0.778.

On to CCCUGUGUUCACGUUUUACTT against Mrps33, for which the z-score is inactive: 1.92.

In the case of CCAGAUGUUGGAUAAAACGTT against Fbxw10, the z-score was inactive: -0.333.

On to GGUGAACAAUCUUUUCCAGTT against Fam221b, for which the z-score is inactive: -0.921.

For GCCAAUGCAGGGUAAGUACTT against Tmtc2, the z-score was active: -2.83.

Turning to GGAAGCUACAGCAACAUAATT against Magi2, the z-score was inactive: -1.36.

In the case of “CCUGCUAUUUCUAUAUAACTT against Csgalnact2”, the z-score was inactive: 1.29.

As to GGACUUGAGUCUUUGUGGATT against Atp6v0e2, the z-score is inactive: -1.9.

Consider CCCACAGUACAUUCUAAAATT against Arsb, for which the z-score is inactive: 0.776.

CGUGAAUGACCUAGCUGAGTT against Spr: the z-score is inactive: -1.9.

With AACAGUGCUUUGUGCCAUGTT against Mageb3, the z-score is inactive: -0.327.

With CCGAGAAAUGCUAUGAAUGTT against Zfp105, the z-score was inactive: 0.148.

For the sequence GCAAAAAUUCAACAUCCUGTT against Fbxo4, the z-score was inactive: 0.575.

For CCAUGAUGAUAAUCUGAAUTT against Wdr25, the z-score is inactive: 0.437.

Turning to GCAAAGGCCAAAUAUGAGGTT against Dbil5, the z-score is active: -2.71.

For GGUCUUUUUCUCUUUGCAUTT against Pcdh10, the z-score was inactive: 0.512.

On to GGGAUUGAUUUCAACAAUGTT against Vmn1r33, for which the z-score was inactive: 0.464.

With GGACCUUGGAUAUAAAGGUTT against Slc25a44, the z-score was inactive: 0.14.

Consider GCUGAAUGGUCUUGUUACATT against Zfp658, for which the z-score is inactive: 1.4.

On to GGAGAAUGUGGCUUCCUGATT against Clec2h, for which the z-score is inactive: 0.224.

With CGCAUUUCAUCGAAUGGAATT against Nlgn2, the z-score is inactive: -0.172.

With GGCAACGGUGAAACUAGACTT against Sh3bp5, the z-score was inactive: 1.21.

For GGUUUAUUUCCAAAGUUGATT against Rab3gap1, the z-score was inactive: 0.54.

GGCUCAGUCUCAGGUGUUCTT against Calhm6: the z-score is inactive: 1.71.

On to GCCAUGGGUCUCAGAAAGATT against Zxda, for which the z-score is inactive: -0.247.

As to GGAACUAGAAGGUGUUUUATT against Ythdf1, the z-score is inactive: 0.41.

Regarding GGGUUUUCUUGUGUGAAAATT against Pomp, the z-score is active: -2.93.

On to CCUUGGAACCUUUAGUUAATT against Rnf181, for which the z-score was inactive: -0.626.

Regarding GCUGAUGUUAAAUUCGCAGTT against Serpinb3b, the z-score is inactive: 1.33.

Take GGCCUUUGCUCUAAACAGCTT against Rdm1: the z-score is inactive: 0.812.

With GAGAUGGAUGGAAAAAAAATT against Klk1b7-ps, the z-score is inactive: -1.52.

In the case of GGAAGGACAUAUUAUCUUGTT against Mga, the z-score is inactive: -0.141.

Consider AGACUGUAAAAGUCUUGUCTT against Ftl2-ps, for which the z-score was inactive: 0.0707.

Turning to GGGCAACGAGCUGUUCAAATT against Unc45a, the z-score is inactive: 1.71.

Turning to GGUGAGAUUACUGAAAGAATT against Plod2, the z-score was inactive: -0.0899.

For CCAAUAAUGGAAGAACCUCTT against Zzz3, the z-score is inactive: -0.64.

For GGAUGUACCCUUAAUAAACTT against Gabra5, the z-score is inactive: 0.766.

Turning to GAAUGUCAGAACCAUCCUCTT against Cdc34, the z-score was inactive: -0.449.

Turning to GCCUUCGAUAAAGUUUUCCTT against Sult2a2, the z-score is inactive: 0.426.

For CCUGAAAGAAAAGAAGGACTT against Ptms, the z-score is inactive: 0.107.

On to GCAGAUGAGAGGAUCCUUATT against Nfatc2, for which the z-score was inactive: 0.192.

In the case of GGACGUAGAAAUGAAACCATT against Tdrd12, the z-score is inactive: -1.53.

In the case of GGAAAAGUUGGACUUUUAUTT against Wdr44, the z-score was inactive: -0.53.

Regarding GGAGAUCUUAGAGAAAUUATT against Pak1, the z-score was inactive: -0.956.

Turning to GGUUAUAAAAAACAACCUGTT against Cpne3, the z-score is inactive: 1.42.

Regarding GGUUAAAACGAGCAACGUGTT against Trmt44, the z-score was inactive: -0.484.

Turning to GCCUUUAAGCAUGAUCCUGTT against Rrp1, the z-score was inactive: -1.17.

In the case of GGCAAAUUCUGGAUCUGCUTT against Marf1, the z-score was inactive: -0.267.

Turning to GUUGUUGCUGGACUUCUUGTT against Olfr1443, the z-score is inactive: -1.17.

Turning to GGUCUCAGAGUACAUUUCCTT against Pde4a, the z-score was inactive: -0.593.

In the case of CGACGACUAGACCUCAUCUTT against Dtx4, the z-score was inactive: -0.624.

Regarding CGCACUUCAAGUUUAAUUGTT against Mmab, the z-score was inactive: -0.818.

On to GGUGAAAUCAGAAUUUGCGTT against Defb23, for which the z-score was inactive: 0.453.

For the origin of these results see PubChem BioAssay AID1508600 (Functional Genomics Laboratory (NCATS/FGL), 2020).
